Test results as given in patent US20040235018A1.
Results are given in words; binding and its absence hold for the method and conditions named. In cells and extracts the contact can be indirect. Some results given as binding are weak or reduced against the parent protein; the word gives no strength. Where a sequence is shown, tags or fusion partners need not be part of it.

Amino acid sequences for entries named in this document (tags omitted).
UniProt P42694: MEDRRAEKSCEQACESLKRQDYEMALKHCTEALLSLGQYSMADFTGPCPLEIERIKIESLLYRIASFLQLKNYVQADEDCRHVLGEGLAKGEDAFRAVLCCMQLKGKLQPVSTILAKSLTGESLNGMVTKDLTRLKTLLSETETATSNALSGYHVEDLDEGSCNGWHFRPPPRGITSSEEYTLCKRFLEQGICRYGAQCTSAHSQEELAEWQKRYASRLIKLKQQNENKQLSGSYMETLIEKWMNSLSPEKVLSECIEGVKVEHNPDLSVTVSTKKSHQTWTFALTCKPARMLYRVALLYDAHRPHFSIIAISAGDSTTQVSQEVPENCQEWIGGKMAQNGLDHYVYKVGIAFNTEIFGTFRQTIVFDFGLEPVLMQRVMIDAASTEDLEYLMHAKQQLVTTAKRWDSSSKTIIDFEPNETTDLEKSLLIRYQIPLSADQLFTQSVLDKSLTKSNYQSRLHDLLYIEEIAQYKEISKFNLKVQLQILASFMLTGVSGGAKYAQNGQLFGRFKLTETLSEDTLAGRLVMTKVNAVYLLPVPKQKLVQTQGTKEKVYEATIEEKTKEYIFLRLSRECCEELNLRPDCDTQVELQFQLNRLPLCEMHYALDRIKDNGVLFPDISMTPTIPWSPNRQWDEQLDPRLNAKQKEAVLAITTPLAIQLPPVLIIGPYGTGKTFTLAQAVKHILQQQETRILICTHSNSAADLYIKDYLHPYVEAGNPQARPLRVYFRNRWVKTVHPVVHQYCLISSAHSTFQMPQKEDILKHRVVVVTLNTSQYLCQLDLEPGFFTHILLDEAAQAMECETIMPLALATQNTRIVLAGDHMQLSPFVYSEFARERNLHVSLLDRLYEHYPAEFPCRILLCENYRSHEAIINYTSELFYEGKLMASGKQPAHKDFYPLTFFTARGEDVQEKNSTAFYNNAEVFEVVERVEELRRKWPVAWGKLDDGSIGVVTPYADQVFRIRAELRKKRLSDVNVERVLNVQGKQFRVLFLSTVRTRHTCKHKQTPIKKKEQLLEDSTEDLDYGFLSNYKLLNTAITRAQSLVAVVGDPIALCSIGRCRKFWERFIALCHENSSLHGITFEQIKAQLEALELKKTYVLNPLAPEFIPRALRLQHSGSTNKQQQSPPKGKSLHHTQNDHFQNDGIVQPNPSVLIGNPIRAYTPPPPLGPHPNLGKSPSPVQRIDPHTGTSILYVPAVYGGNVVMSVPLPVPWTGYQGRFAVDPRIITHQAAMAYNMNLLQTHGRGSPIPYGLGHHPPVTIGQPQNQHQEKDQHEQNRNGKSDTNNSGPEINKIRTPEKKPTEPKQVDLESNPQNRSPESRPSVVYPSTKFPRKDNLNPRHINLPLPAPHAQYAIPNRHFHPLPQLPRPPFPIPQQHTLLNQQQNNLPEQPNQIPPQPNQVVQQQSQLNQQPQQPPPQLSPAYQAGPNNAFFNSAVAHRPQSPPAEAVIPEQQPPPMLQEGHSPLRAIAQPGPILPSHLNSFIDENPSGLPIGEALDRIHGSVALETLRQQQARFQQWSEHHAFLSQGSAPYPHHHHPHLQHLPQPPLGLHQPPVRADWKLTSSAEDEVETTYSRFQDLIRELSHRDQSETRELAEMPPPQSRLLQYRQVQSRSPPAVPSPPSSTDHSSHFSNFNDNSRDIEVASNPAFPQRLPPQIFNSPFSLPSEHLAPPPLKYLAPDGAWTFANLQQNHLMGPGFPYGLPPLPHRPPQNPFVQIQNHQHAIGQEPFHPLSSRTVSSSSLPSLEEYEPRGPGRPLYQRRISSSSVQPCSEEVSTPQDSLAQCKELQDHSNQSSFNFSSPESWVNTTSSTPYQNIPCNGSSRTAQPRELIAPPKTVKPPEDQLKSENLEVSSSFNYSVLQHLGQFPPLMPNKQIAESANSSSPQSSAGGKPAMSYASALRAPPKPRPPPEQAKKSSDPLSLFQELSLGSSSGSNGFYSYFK

What was measured:
[1] = molecular target: HA-tagged KIAA0054 (pCMV-HA-KIAA0054, Full length) (UniProt P42694); test: co-immunoprecipitation from HeLa lysate, immunoblot
[2] = molecular target: HA-tagged KIAA0054 (pCMV-HA-KIAA0054, Full length) (UniProt P42694); test: co-immunoprecipitation from HeLa lysate with anti-FLAG or anti-HA, immunoblot (FIG. 7C)

B1: FLAG-tagged ZNFN3A1 (pFLAG-CMV-ZNFN3A1, Full) (protein, not shown: small tags and cut ends)
chain: MEPLKVEKFATANRGNGLRAVTPLRPGELLFRSDPLAYTVCKGSRGVVCDRCLLGKEKLMRCSQCRVAKYCSAKCQKKAWPDHKRECKCLKSCKPRYPPDSVRLLGRVVFKLMDGAPSESEKLYSFYDLESNINKLTEDKKEGLRQLVMTFQHFMREEIQDASQLPPAFDLFEAFAKVICNSFTICNAEMQEVGVGLYPSISLLNHSCDPNCSIVFNGPHLLLRAVRDIEVGEELTICYLDMLMTSEERRKQLRDQYCFECDCFRCQTQDKDADMLTGDEQVWKEVQESLKKIEELKAHWKWEQVLAMCQAIISSNSERLPDINIYQLKVLDCAMDACINLGLLEEALFYGTRTMEPYRIFFPGSHPVRGVQVMKVGKLQLHQGMFPQAMKNLRLAFDIMRVTHGREHSLIEDLILLLEECDANIRAS
binding [1]: binds
binding [2]: binds
